No constants are given. Whether binding was seen depends on the method and setting. Binding seen in cells or lysates may run through a third protein. Binding calls can cover weak binding; strength is not graded here.
Biological target: T1, Polycomb (PC) (Drosophila (endogenous in S2 cells)) (UniProt P26017)
T1 sequence: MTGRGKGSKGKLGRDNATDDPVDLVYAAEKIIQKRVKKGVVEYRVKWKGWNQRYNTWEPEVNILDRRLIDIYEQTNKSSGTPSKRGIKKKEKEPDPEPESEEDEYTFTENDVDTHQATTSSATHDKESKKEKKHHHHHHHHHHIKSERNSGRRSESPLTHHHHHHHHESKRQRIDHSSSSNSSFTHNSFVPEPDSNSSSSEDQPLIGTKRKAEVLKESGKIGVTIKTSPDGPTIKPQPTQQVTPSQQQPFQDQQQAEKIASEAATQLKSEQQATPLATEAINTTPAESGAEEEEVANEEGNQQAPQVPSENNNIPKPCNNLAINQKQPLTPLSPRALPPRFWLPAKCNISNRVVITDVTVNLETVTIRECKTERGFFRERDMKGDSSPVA
Test: co-IP

FLAG-Tcp-1η (Drosophila) was tested. Which binding did it give?
The binding was “binds”.

Source: publication doi:10.1101/2021.04.23.441114
